US11540515B2, “Use of dialkoxybenzenes for control of honey bee mite varroa destructor” (Simon Fraser University, priority 2018, dated 2023)

System: Varroa mites in honey bee colony
Experiment: Colony test with solid 3c{3,6} in organza bags
Assay type: in vivo, Varroa destructor
Protocol: Colony test. One colony of two supers was treated with solid 3c{3,6}, delivered in organza bags. The colony was otherwise healthy (apart from having Varroa mites), and the bee cluster reached over both boxes. Above the top box was placed a queen excluder and a top-feeding box. The following treatments were done: i) Day 1: 4×60 mg with bags placed above the cluster in the top box (below the queen excluder) only; ii) After 30 days: 4×60 mg with bags placed above the cluster in the top box (below the queen excluder) only; iii) After an additional 14 days, 4×100 mg with two bags placed on top of the lower box (i.e. between the two boxes) and two bags placed on top of the cluster on the top box (just below the queen excluder) iv) After an additional 7 days, 4×100 mg was added and the bags from the previous week were kept in. On the third treatment two Pasteur pipettes with Porapak (wedged between glass wool plugs in the pipette) were installed, one in the middle of the top cluster, the other on the edge of the cluster. These were removed. The colony was fitted with a screened bottom platform and a white Varroa counting drawer underneath the screen. Mites on the counting drawer board were counted every few days.
Porapak cartridges were extracted with hexane:ethyl acetate (4:1) with 40 ng/μL of 1,4-dimethoxybenzene as internal standard. […]

Compound: C=CCOc1ccc(OCCC)cc1 [3c{3,6}, 1-allyloxy-4-propoxybenzene]
- amount of compound in Porapak (Porapak at the center of the cluster): 193 ng
- amount of compound in Porapak (Porapak at the edge of the cluster): 148 ng
